Assay results as given in article PMC11534691.
No constants are given. Whether binding was seen depends on the method and setting. A result given as binding can be weak or reduced; the word gives no strength.

Protein sequences, listed by entry. Tags and fused reporters are not part of them. Lines headed by an entry give the natural chain unless they say otherwise; changes in a name come on top.
UniProt P36897: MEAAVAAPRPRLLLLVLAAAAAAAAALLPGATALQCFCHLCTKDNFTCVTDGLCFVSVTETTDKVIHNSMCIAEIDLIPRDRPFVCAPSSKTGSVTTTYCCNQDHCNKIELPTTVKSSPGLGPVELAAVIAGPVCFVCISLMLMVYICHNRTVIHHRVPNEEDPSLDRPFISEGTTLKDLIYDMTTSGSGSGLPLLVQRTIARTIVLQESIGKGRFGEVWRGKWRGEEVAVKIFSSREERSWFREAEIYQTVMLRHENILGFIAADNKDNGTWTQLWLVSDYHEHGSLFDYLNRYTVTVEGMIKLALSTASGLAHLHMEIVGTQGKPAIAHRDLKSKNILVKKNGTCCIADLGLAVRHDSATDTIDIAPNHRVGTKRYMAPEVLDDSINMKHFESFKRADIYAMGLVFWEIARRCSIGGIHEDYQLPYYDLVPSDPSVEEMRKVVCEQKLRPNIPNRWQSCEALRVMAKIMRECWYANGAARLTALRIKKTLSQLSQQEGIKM
UniProt Q96AC1: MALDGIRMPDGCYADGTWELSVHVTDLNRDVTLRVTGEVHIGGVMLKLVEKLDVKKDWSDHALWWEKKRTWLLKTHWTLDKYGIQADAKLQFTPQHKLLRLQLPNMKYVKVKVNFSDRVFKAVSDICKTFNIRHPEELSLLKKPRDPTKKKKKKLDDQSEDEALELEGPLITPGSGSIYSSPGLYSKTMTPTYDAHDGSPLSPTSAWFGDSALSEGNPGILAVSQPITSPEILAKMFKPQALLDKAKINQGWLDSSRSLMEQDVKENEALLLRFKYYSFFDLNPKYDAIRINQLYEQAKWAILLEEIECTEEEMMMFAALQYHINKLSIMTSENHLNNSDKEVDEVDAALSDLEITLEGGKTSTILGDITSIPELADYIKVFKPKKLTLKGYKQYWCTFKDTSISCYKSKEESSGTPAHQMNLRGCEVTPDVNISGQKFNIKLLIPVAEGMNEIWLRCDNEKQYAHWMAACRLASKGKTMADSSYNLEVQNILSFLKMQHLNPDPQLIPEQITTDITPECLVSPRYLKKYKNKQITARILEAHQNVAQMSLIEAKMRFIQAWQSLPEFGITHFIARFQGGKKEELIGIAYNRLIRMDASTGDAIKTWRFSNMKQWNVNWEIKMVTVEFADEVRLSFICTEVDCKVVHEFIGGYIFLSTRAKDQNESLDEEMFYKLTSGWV

Target: Recombinant TβRI protein (Abcam ab105908) (UniProt P36897)
Assay: ELISA; solid phase binding assay: β1-Integrin or TβRI immobilised on 96-well plates at 5 μg/well in TBS, 20 h 4 °C; GST-Kindlin-2 added at 0–7 µM in TBS with 1 mM CaCl2, 1 mM MgCl2, 2 h 37 °C; detected with anti-GST-HRP, absorbance at 450 nm; both purified

- binding: binds
Substance: Full-length Kindlin-2, GST fusion protein (from UniProt Q96AC1 1-680)
